PubChem BioAssay AID248 (DTP/NCI, 2004)
The list does not hold the whole screen: it gathers tests that were run many times, whatever their T/C, doses with no T/C, and many T/C values between a quarter and a half above the control. Further doses and runs are listed elsewhere. T/C gives the treated animals as a percentage of the vehicle group. Some doses have a count of surviving animals in place of a T/C: the source files T/C as zero there, which appears to mark a toxic dose or a test without result, not a measured value. Some survivor counts are full or nearly so, which does not show that the dose was tolerated: survival well below the control is almost never listed, so the zero probably covers shortened survival too. Survivors were counted at the toxicity check, usually on the fifth day, unless a day is given; later deaths do not show. Schedules are NCI's codes, taken here to give the interval after Q, in days (D) or hours (H), and the number of doses after X.

System: L1210 leukemia ip in BDF1 mice, survival T/C
Experiment: NCI In Vivo Anticancer Drug Screen. Data for tumor model L1210 Leukemia (intraperitoneal) in B6D2F1 (BDF1) mice
Conditions: T/C endpoint: mean survival time, higher T/C = longer survival
[1] = dose: 200.0 mg/kg/injection, schedule: Q01DX009 (ip), vehicle: saline
[2] = dose: 400.0 mg/kg/injection, schedule: Q01DX001 (ip), vehicle: saline

In the case of `CCN(C1CCCCC1)C1CCCCC1`, the survivor count (dose: 100.0 mg/kg/injection, schedule: Q01DX009 (ip), vehicle: saline) was 2 of 6, the survivor count [1] was 0 of 6 and the survivor count (dose: 400.0 mg/kg/injection, schedule: Q01DX009 (ip), vehicle: saline) was 0 of 6.

With `N#Cc1cnn2c(=O)[nH]cnc12` the survivor count (dose: 400.0 mg/kg/injection, schedule: Q01DX009 (ip), vehicle: saline sonified) was 5 of 6.

With `CN(C)Cc1cc(C(C)(C)C)ccc1-c1ccc(C(C)(C)C)cc1CN(C)C` the survivor count (dose: 100.0 mg/kg/injection, schedule: Q01DX009 (ip), vehicle: gum acacia) was 0 of 6, the survivor count (dose: 200.0 mg/kg/injection, schedule: Q01DX009 (ip), vehicle: gum acacia) was 0 of 6 and the survivor count (dose: 400.0 mg/kg/injection, schedule: Q01DX009 (ip), vehicle: gum acacia) was 0 of 6.

For `NN1CCCC1C(=O)O` (centres undefined), the survivor count (dose: 300.0 mg/kg/injection, schedule: Q01DX001 (ip), vehicle: saline) was 0 of 6.

With `O=C1/C(=N/O)CCc2ccccc21` the survivor count [1] was 5 of 6 and the survivor count (dose: 400.0 mg/kg/injection, schedule: Q01DX001 (ip), vehicle: carboxymethylcellulose (CMC)) was 2 of 4.

In the case of `Nc1nc(NCCCc2ccccc2)cc(=O)[nH]1`, the survivor count (dose: 100.0 mg/kg/injection, schedule: Q04DX003 (ip), vehicle: saline with Tween-80) was 3 of 6.

In the case of `O=C(O)CO/N=C/c1ccccc1Cl`, the survivor count (dose: 100.0 mg/kg/injection, schedule: Q04DX002 (ip), vehicle: Klucel (hydroxypropylcellulose) (HPC)) was 3 of 3.

For `CC1(O)OOC(=O)C1(C)C` (centres undefined), the survivor count (dose: 100.0 mg/kg/injection, schedule: Q01DX001 (ip), vehicle: saline with Tween-80) was 0 of 6, the survivor count (dose: 200.0 mg/kg/injection, schedule: Q01DX001 (ip), vehicle: saline with Tween-80) was 0 of 6 and the survivor count (dose: 400.0 mg/kg/injection, schedule: Q01DX001 (ip), vehicle: saline with Tween-80) was 0 of 6.

In the case of `NC1CC2C=CCC(C1)C2` (centres undefined), the survivor count [2] was 0 of 6.

`NCC(=O)c1ccc(Cl)cc1` was tested, and the survivor count [2] was 0 of 6.

`O=P(O)(O)/C=C/c1ccccc1` was tested, and the survivor count (dose: 400.0 mg/kg/injection, schedule: Q04DX003 (ip), vehicle: Klucel (hydroxypropylcellulose) (HPC)) was 4 of 6.

For `O=C(Nc1coc2ccc(Cl)cc12)C1CC1`, the survivor count (dose: 400.0 mg/kg/injection, schedule: Q01DX009 (ip), vehicle: saline with Tween-80) was 2 of 6.

In the case of `Cc1ccc(NCC(O)CN2CCCC2)cc1` (centres undefined), the survivor count (dose: 50.0 mg/kg/injection, schedule: Q01DX009 (ip), vehicle: Klucel (hydroxypropylcellulose) (HPC)) was 6 of 6, the survivor count (dose: 50.0 mg/kg/injection, schedule: Q04DX003 (ip), vehicle: Klucel (hydroxypropylcellulose) (HPC)) was 1 of 6 and the survivor count (dose: 100.0 mg/kg/injection, schedule: Q01DX001 (ip), vehicle: other) was 0 of 6. For the same molecule, the survivor count (dose: 100.0 mg/kg/injection, schedule: Q01DX009 (ip), vehicle: Klucel (hydroxypropylcellulose) (HPC)) was 5 of 6, the survivor count (dose: 200.0 mg/kg/injection, schedule: Q01DX001 (ip), vehicle: other) was 0 of 6 and the survivor count (dose: 400.0 mg/kg/injection, schedule: Q01DX001 (ip), vehicle: other) was 0 of 6.

With `C[N+](C)(C)c1ccc(Cc2ccc([N+](C)(C)C)cc2)cc1` the survivor count (dose: 0.05 mg/kg/injection, schedule: Q04DX002 (ip), vehicle: saline with Tween-80) was 0 of 3, the survivor count (dose: 0.1 mg/kg/injection, schedule: Q04DX002 (ip), vehicle: saline with Tween-80) was 0 of 3 and the survivor count (dose: 0.2 mg/kg/injection, schedule: Q04DX002 (ip), vehicle: saline with Tween-80) was 0 of 3. For the same molecule, the survivor count (dose: 0.78 mg/kg/injection, schedule: Q04DX002 (ip), vehicle: saline with Tween-80) was 0 of 3, the survivor count (dose: 1.56 mg/kg/injection, schedule: Q04DX002 (ip), vehicle: saline with Tween-80) was 0 of 3 and the survivor count (dose: 3.13 mg/kg/injection, schedule: Q04DX002 (ip), vehicle: saline with Tween-80) was 0 of 3. For the same molecule, the survivor count (dose: 100.0 mg/kg/injection, schedule: Q04DX002 (ip), vehicle: saline with Tween-80) was 0 of 3, the survivor count (dose: 200.0 mg/kg/injection, schedule: Q04DX002 (ip), vehicle: saline with Tween-80) was 0 of 3 and the survivor count (dose: 400.0 mg/kg/injection, schedule: Q04DX002 (ip), vehicle: saline with Tween-80) was 0 of 3.
